Two substances from PMC10322906 can be followed below.

Protein sequences, listed by entry. Tags and fused reporters are not part of them.
UniProt P49407: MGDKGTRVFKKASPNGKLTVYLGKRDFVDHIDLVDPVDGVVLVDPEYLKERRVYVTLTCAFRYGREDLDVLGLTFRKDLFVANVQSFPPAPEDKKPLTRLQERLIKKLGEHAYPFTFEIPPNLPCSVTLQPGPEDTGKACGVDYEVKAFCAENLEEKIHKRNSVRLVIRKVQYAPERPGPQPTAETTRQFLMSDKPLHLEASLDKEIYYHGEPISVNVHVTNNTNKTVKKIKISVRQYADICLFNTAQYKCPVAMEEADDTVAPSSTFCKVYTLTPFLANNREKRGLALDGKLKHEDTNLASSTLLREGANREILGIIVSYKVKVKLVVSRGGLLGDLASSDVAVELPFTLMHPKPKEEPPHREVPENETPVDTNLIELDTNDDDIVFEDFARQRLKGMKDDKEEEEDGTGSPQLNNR

No constants are given. Whether binding was seen depends on the method and setting. Binding seen in cells or lysates may run through a third protein. Some binding calls cover weakened binding; strength is not graded here.

This experiment concerns the target AGTR1-RLuc8 (UniProt P30556). As to the kind of experiment: FRET or BRET; BRET2: HEK293T cells transfected with GPCR-RLuc8 and β-arrestin1/2-GFP2; agonist 30 min at 37 °C, Coelenterazine 400a 5 µM.

For the substance “β-arrestin1-GFP2 (from UniProt P49407 1-418)”, the binding result was “binds”.

For “β-arrestin2-GFP2 (from UniProt P32121 1-409)”, the binding result is “binds”.
